± gives the standard deviation of the averaged measurements. The list shows a part of the results.

Sequences of proteins named here, by UniProt entry; tags and fusion partners are left off. A change or cut given only in a name is not applied to a line headed by its entry.
UniProt Q8NEM7: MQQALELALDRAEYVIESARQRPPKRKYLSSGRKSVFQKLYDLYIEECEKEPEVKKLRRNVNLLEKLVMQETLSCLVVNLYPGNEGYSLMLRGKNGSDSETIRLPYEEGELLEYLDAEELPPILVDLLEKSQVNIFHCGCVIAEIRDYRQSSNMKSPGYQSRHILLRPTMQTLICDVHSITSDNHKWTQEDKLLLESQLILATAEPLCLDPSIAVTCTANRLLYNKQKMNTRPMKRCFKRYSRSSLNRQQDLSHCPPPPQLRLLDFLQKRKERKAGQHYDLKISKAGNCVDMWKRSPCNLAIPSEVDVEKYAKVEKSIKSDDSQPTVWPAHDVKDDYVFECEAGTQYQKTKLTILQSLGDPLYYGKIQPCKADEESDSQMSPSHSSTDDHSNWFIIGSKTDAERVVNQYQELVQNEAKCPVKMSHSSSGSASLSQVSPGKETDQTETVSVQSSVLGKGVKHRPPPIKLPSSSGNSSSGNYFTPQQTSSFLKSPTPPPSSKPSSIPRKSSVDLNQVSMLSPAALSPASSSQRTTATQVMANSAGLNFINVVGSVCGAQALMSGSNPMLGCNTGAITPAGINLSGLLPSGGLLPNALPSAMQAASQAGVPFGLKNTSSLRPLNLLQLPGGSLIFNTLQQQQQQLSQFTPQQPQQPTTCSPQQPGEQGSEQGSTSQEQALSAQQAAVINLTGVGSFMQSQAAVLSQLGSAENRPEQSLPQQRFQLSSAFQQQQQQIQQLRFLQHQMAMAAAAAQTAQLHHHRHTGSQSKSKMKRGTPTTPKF
UniProt Q96F07, whole entry: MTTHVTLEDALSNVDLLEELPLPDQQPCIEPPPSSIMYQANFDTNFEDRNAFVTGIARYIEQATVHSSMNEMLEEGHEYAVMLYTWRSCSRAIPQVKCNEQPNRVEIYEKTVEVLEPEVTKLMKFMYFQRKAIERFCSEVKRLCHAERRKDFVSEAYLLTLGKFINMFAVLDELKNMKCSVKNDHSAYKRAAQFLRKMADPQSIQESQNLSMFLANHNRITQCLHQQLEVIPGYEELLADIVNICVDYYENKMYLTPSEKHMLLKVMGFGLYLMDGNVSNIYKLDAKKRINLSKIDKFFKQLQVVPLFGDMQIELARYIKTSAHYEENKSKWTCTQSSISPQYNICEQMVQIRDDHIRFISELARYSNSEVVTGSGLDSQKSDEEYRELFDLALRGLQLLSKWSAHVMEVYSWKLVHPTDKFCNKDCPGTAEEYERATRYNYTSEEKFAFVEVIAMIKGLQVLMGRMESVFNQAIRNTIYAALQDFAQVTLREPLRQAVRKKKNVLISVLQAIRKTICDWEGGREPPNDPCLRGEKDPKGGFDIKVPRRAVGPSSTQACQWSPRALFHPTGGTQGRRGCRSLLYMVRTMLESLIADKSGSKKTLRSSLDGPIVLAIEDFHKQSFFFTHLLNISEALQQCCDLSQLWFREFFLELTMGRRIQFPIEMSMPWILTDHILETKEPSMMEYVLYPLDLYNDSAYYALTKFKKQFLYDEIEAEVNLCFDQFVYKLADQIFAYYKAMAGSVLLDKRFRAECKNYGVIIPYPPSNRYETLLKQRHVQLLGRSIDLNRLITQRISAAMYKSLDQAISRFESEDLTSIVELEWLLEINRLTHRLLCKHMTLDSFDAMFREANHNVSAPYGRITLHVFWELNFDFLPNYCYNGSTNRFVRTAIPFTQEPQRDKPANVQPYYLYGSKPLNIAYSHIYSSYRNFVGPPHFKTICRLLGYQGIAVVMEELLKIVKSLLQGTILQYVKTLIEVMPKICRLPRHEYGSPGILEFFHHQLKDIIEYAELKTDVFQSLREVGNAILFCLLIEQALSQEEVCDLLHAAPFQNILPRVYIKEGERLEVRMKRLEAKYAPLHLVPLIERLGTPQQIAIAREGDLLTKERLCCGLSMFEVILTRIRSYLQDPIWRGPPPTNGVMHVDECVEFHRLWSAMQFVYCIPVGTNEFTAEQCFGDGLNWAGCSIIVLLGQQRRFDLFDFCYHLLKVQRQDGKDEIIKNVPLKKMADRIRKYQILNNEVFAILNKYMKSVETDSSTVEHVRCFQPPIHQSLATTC
UniProt Q99627: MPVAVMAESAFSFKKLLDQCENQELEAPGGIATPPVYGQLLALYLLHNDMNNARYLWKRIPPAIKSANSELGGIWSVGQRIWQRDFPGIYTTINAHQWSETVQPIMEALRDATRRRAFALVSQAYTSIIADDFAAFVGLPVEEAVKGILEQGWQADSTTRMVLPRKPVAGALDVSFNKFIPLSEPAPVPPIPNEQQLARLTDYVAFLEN
UniProt Q9Y4C1: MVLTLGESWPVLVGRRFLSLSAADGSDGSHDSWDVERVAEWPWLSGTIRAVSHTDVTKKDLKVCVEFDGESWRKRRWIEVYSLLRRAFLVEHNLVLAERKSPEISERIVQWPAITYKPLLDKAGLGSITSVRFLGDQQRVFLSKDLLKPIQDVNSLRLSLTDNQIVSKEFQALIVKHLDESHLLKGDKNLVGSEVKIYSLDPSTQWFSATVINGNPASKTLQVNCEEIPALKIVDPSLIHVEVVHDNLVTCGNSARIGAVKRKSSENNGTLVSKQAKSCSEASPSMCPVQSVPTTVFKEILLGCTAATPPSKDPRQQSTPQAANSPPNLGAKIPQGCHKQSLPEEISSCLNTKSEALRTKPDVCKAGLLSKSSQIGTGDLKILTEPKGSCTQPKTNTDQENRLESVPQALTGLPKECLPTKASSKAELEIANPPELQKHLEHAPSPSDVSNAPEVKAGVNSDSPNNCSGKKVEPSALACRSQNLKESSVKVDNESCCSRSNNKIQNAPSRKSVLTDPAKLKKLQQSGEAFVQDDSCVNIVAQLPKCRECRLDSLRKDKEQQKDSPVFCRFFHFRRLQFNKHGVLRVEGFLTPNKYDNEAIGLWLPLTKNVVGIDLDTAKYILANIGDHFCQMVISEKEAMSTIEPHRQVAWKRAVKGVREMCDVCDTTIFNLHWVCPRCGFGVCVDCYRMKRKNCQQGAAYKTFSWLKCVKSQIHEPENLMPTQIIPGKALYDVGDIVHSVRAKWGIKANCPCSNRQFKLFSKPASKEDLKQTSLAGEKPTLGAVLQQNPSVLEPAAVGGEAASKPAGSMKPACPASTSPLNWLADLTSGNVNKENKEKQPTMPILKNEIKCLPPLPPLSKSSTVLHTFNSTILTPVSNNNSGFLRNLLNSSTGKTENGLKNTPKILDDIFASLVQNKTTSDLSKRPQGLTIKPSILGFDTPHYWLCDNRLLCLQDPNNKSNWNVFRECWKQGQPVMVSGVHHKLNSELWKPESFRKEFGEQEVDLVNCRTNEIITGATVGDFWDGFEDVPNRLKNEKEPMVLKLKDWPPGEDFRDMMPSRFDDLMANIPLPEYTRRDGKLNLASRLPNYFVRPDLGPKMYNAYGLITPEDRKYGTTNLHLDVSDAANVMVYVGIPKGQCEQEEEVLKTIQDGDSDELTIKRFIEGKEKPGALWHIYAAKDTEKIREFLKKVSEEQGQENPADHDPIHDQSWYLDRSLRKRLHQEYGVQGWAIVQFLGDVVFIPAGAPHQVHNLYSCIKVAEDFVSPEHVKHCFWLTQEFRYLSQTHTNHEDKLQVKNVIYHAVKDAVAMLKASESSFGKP
UniProt Q5VW38: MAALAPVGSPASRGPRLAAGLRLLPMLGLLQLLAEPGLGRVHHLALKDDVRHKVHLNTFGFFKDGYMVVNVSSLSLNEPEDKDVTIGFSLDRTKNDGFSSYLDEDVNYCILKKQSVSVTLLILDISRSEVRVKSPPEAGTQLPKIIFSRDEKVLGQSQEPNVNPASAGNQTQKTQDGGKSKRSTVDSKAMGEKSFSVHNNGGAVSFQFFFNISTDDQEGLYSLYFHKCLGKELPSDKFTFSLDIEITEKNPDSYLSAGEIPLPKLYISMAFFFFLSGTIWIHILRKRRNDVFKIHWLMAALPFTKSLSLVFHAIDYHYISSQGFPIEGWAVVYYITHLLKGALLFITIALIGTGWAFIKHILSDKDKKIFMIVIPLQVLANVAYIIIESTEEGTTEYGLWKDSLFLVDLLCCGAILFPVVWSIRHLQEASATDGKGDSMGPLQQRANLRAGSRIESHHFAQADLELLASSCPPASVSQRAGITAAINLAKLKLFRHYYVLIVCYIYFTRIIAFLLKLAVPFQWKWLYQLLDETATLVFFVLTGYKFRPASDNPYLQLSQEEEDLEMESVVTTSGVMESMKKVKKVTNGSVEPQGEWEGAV

Compound in the test: Nc1nc2c(ncn2[C@@H]2O[C@H](COP(=O)(O)OP(=O)(O)OP(=O)(O)O)[C@@H](O)[C@H]2O)c(=O)[nH]1 [guanosine triphosphate]
Nature of the test: NP40-soluble protein abundance relative to vehicle (solubility fold change) (ratio); higher = more soluble protein in presence of GTP. The protocol: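 Solubility proteome profiling in Jurkat crude lysate. Lysate was treated with Mg-GTP (0.1-10 mM) for 10 min at room temperature and 3 min at 37 °C, then solubilised with 0.8% NP40 and benzonase, followed by ultracentrifugation. Proteins were quantified by TMT10 LC-MS/MS; the value is the NP40-soluble abundance relative to the NP40-processed vehicle, from 3 independent experiments.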

Turning to “F6S7C4 and related entries (UniProt Q8NEM7)”, the NP40-soluble protein abundance (concentration: 0.1mM) stood at 1.23 ± 0.04; the NP40-soluble protein abundance (concentration: 0.5mM) is 1.22 ± 0.089; the NP40-soluble protein abundance (concentration: 1mM) was 1.21 ± 0.11; the NP40-soluble protein abundance (concentration: 2mM) turned out to be 1.29 ± 0.038; the NP40-soluble protein abundance (concentration: 4mM) was 1.43 ± 0.071; the NP40-soluble protein abundance (concentration: 6mM) came out at 1.42 ± 0.058. Also, the NP40-soluble protein abundance is, setting by setting: (concentration: 8mM) 1.37 ± 0.087; (concentration: 10mM) 1.38 ± 0.088.
Consider “E7EVJ5 and related entries (UniProt Q96F07)”, for which the NP40-soluble protein abundance (concentration: 0.1mM) was 1.12 ± 0.069; the NP40-soluble protein abundance (concentration: 0.5mM) was determined as 1.16 ± 0.11; the NP40-soluble protein abundance (concentration: 1mM) stood at 0.938 ± 0.031; the NP40-soluble protein abundance (concentration: 2mM) was found to be 1.04 ± 0.15; the NP40-soluble protein abundance (concentration: 4mM) is 0.97 ± 0.094; the NP40-soluble protein abundance (concentration: 6mM) stood at 0.964 ± 0.059. The NP40-soluble protein abundance is 0.864 ± 0.058 (concentration: 8mM) and 0.845 ± 0.1 (concentration: 10mM).
With “E9PGT6 and related entries (UniProt Q99627)”, the NP40-soluble protein abundance is 0.959 ± 0.041 (concentration: 0.1mM); 0.975 ± 0.055 (concentration: 0.5mM); 1.01 ± 0.068 (concentration: 1mM); 1.01 ± 0.059 (concentration: 2mM); 1.02 ± 0.072 (concentration: 4mM); 1.01 ± 0.022 (concentration: 6mM). Besides, the NP40-soluble protein abundance reads like this: (concentration: 8mM) 0.967 ± 0.018; (concentration: 10mM) 0.984 ± 0.037.
For the target “F5H070 and related entries (UniProt Q9Y4C1)”, the NP40-soluble protein abundance came out at 1.03 ± 0.03 (concentration: 0.1mM); 1.02 ± 0.039 (concentration: 0.5mM); 0.987 ± 0.023 (concentration: 1mM); 0.99 ± 0.029 (concentration: 2mM); 0.987 ± 0.022 (concentration: 4mM); 0.939 ± 0.053 (concentration: 6mM). Also, the NP40-soluble protein abundance came to 0.954 ± 0.042 (concentration: 8mM) and 0.929 ± 0.029 (concentration: 10mM).
As to “G5E994 and related entries (UniProt Q5VW38)”, the NP40-soluble protein abundance (concentration: 0.1mM) is 1.03 ± 0.02; the NP40-soluble protein abundance (concentration: 0.5mM) stood at 1.03 ± 0.051; the NP40-soluble protein abundance (concentration: 1mM) was found to be 1.05 ± 0.044; the NP40-soluble protein abundance (concentration: 2mM) amounted to 0.991 ± 0.037; the NP40-soluble protein abundance (concentration: 4mM) was 0.972 ± 0.051; the NP40-soluble protein abundance (concentration: 6mM) amounted to 0.956 ± 0.052. The NP40-soluble protein abundance by setting is: (concentration: 8mM) 0.961 ± 0.038; (concentration: 10mM) 1 ± 0.015.

(Values after the supplement of paper PMC6411743.)
